Measurements from article PMC6019701.
Results are given in words; binding and its absence hold for the method and conditions named. Binding seen in cells or lysates may run through a third protein. Some binding calls cover weakened binding; strength is not graded here. Where a sequence is shown, tags or fusion partners need not be part of it.

Sequences of proteins named here, by UniProt entry; tags and fusion partners are left off.
UniProt Q9NUW8: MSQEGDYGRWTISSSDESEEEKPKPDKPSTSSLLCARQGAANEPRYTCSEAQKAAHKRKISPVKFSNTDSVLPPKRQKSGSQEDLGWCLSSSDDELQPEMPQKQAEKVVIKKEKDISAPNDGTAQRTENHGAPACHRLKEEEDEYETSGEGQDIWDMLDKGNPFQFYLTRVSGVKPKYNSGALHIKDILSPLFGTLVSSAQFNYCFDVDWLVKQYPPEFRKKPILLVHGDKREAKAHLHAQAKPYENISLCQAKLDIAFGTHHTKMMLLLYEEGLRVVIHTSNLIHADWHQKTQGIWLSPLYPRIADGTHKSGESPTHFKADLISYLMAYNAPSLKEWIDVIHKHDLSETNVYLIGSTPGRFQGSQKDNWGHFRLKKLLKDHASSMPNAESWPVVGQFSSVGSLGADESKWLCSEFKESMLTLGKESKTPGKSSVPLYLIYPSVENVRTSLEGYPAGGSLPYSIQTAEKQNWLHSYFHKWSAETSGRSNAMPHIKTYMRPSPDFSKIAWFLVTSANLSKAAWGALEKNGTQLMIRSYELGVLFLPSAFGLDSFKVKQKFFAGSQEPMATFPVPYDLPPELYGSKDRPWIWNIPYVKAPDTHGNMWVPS

Target: T1, UCHL3-GFP (ubiquitin carboxyl-terminal hydrolase isozyme L3) (UniProt P15374)
T1 sequence: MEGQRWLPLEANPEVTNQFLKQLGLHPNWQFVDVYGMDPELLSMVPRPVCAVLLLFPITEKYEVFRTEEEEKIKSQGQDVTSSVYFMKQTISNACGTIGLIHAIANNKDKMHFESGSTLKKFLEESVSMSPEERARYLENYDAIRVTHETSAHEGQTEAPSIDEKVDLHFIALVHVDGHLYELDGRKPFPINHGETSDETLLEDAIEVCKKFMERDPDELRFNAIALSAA
Experiment: co-IP; HEK293T cells transfected with Myc-TDP1 and UCHL3-GFP; cells treated with DMSO or 10 uM CPT for 20 min; lysate adjusted to 150 mM NaCl, GFP-Trap beads overnight at 4 C; anti-Myc and anti-GFP immunoblotting

- binding: binds
Substance: Myc-TDP1 (tyrosyl DNA phosphodiesterase 1) (from UniProt Q9NUW8 1-608) (enzyme)
